Test results as given in PubChem BioAssay AID2551 (National Center for Advancing Translational Sciences (NCATS), 2010).
The campaign covered roughly 310,000 compounds. About 17,000 (5.5%) were called active. Inconclusive means that the source gave no clear call. Such entries were picked first, then a sample of the others. Calls follow the shape of the dose curve; as a rule, active = well fitted inhibition curve with a large enough effect; inconclusive = small, poorly fitted or top-dose-only effect, or effect the other way; inactive = no such curve, though single readings can be large or run the other way. Potencies of inconclusive entries are doubtful fits and often do not repeat.

Amino acid sequences for entries named in this document (tags omitted). A change or cut given only in a name is not applied to a line headed by its entry.
UniProt P51450: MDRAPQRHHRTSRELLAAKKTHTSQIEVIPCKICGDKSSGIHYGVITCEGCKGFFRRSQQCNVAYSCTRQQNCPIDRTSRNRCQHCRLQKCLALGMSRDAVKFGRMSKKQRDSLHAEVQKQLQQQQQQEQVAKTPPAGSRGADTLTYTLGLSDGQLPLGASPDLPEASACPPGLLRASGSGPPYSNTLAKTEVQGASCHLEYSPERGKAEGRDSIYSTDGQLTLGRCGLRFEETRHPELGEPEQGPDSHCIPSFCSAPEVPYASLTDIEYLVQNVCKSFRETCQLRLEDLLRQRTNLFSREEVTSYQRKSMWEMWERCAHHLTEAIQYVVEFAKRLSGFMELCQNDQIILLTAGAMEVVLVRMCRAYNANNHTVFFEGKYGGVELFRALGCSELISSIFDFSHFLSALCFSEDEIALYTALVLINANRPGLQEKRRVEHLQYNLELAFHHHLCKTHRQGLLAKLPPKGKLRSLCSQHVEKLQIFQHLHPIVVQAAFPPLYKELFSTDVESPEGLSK

The compounds below were run against Nuclear receptor ROR-gamma (Mus musculus) (UniProt P51450) (assay: qHTS for inhibitors of ROR gamma transcriptional activity). Conditions: Drosophila S2 Gal4-RORgamma UAS-luciferase reporter, 20 h; series mostly up to 53.6 µM.
Outline: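 Stably transfected Drosophila Schneider cells are the test system, with ROR gamma fused to Gal4 and luciferase under UAS control; luminescence is read after 20 hr of 700 uM copper sulfate induction at ambient temperature.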
Also: nearly all actives have a fitted effect of over 60% in size.
Potency is read from the fitted curve at half-maximal effect.

Row | SMILES | Potency
1 | CCOC(=O)Cc1csc(NC(=O)CSc2nnc(-c3cccnc3)n2Cc2ccco2)n1 | inconclusive: 35.5 µM [activator, single point]
2 | Cc1sc2nc(SCC(=O)NCCOCCO)n(C)c(=O)c2c1C | inactive
3 | CCSc1n[nH]c(=S)s1 | inconclusive: 25.1 µM [inhibitor, single point]
4 | Cc1csc(NC(=O)CSc2nc3ccccc3c3c2CCCC3)n1 | inconclusive: 14.1 µM [inhibitor, partial curve, poor fit]
5 | Cc1ccc(O)c(NC(=O)c2noc3c2CCc2ccccc2-3)c1 | inactive
6 | CC(=O)Nc1ccc(S(=O)(=O)Nc2ccc(S(=O)(=O)Nc3nc(C)cc(C)n3)cc2)cc1 | inconclusive: 10 µM [inhibitor, single point]
7 | CC(C)C(OC(=O)CCC(=O)Nc1nccs1)C(=O)NC1CCCCC1 (configuration not stated) | inconclusive: 31.6 µM [activator, single point]
8 | COc1cccc(-c2cc(NCc3cnc(C)cn3)ncn2)c1 | inconclusive: 0.708 µM [activator, partial curve, poor fit]
9 | Cc1cc(C)nc(NCC(O)CNc2ccccc2Cl)n1 (configuration not stated) | inconclusive: 4.47 µM [activator, single point]
10 | Cc1ccc(-c2nc(-c3ccncc3)no2)cc1 | active: 14.1 µM
11 | COc1ccccc1/C=C/C=N/NC(=O)Cc1cccs1 | active: 10 µM
12 | Cc1cc(NC(=O)CCS(=O)(=O)c2ccc3c(c2)NC(=O)C(C)S3)ccc1Br (configuration not stated) | inactive
13 | Cc1ccc(S(=O)(=O)N2CCCC2C(=O)Nc2nc3c(s2)CCCC3)cc1 (configuration not stated) | inconclusive: 17.8 µM [activator, single point]
14 | COc1ccc(N2CCN(C(=O)CC(C)S(=O)(=O)c3ccc4c(c3)NC(=O)CO4)CC2)cc1 (configuration not stated) | inconclusive: 31.6 µM [activator, single point]
15 | O=Cc1cc2ccccc2nc1SCc1ccc(Cl)cc1 | inconclusive: 35.5 µM [activator, single point]
16 | Cc1cccc(N2CCN(S(=O)(=O)c3ccc4c(c3)CCC(=O)N4)CC2C)c1 (configuration not stated) | inconclusive: 14.1 µM [inhibitor, single point]
17 | C/C(=N\NC(N)=S)c1cccnc1 | inactive
18 | O=C(CCn1cnc2ccccc2c1=O)Nc1ccc(S(=O)(=O)N2CCCCC2)cc1 | inactive
19 | Cc1cc(OCc2cc(C(=O)NCc3csc(C(C)C)n3)no2)cc(C)c1Cl | inconclusive: 35.5 µM [activator, single point]
20 | Cc1ccc(-c2csc3nc(C)n(N)c(=O)c23)o1 | inconclusive: 14.1 µM [activator, partial curve]
21 | COC(=O)c1cc(OC)c(OC)cc1NCC(=O)Nc1cccc(C(F)(F)F)c1 | inconclusive: 35.5 µM [activator, single point]
22 | COc1ccccc1CNCC(O)Cn1c2ccccc2c2ccccc21 (configuration not stated) | inconclusive: 12.6 µM [inhibitor, single point]
23 | N#C/C(=C(/O)CN1C(=O)c2ccccc2C1=O)c1nc2ccccc2[nH]1 | active: 11.2 µM
24 | CC1=NS(=O)(=O)c2cc(Cl)ccc2N1 | inconclusive: 12.6 µM [activator, partial curve]

3 consecutive records already listed:
Row | SMILES | Potency
20 | Cc1ccc(-c2csc3nc(C)n(N)c(=O)c23)o1 | inconclusive: 14.1 µM [activator, partial curve]
21 | COC(=O)c1cc(OC)c(OC)cc1NCC(=O)Nc1cccc(C(F)(F)F)c1 | inconclusive: 35.5 µM [activator, single point]
22 | COc1ccccc1CNCC(O)Cn1c2ccccc2c2ccccc21 (configuration not stated) | inconclusive: 12.6 µM [inhibitor, single point]

Remaining list, next part.

Row | SMILES | Potency
25 | COc1ccc(-c2csc(NC(=S)NC(=O)c3ccco3)n2)cc1 | active: 7.08 µM
26 | Cc1ccc2cc(CN(CCCO)S(=O)(=O)c3ccccc3F)c(=O)[nH]c2c1C | inconclusive: 35.5 µM [activator, single point]
27 | CCOC(=O)CNc1ncc(C(F)(F)F)cc1Cl | inactive
28 | Cc1nn(C)c(C(=O)N/N=C/c2cc3c(cc2Br)OCO3)c1Br | inconclusive: 35.5 µM [inhibitor, single point]
29 | CCOC(=O)C1CCN(C(=O)C2CCN(S(=O)(=O)c3ccc4ccccc4c3)CC2)CC1 | inconclusive: 7.08 µM [activator, full curve, poor fit]
30 | COC(=O)c1ccc(C2C(Oc3ccc(OC)cc3)C(=O)N2CCc2ccc(F)cc2)cc1 (configuration not stated) | inconclusive: 35.5 µM [inhibitor, single point]
31 | CS(=O)(=O)N1CCC(C(=O)Nc2ccccc2Sc2ccccc2)CC1 | inconclusive: 11.2 µM [inhibitor, partial curve, poor fit]
32 | O=S(=O)(N/N=C/c1cn(Cc2ccccc2)c2ccccc12)c1ccccc1 | inconclusive: 11.2 µM [activator, partial curve]
33 | COC(=O)C1CCN(C(=O)COc2cc3sc(C)nc3c3sccc23)CC1 | inactive
34 | Cc1ccc(NS(=O)(=O)c2sc3ccc(Cl)cc3c2C)cc1 | inconclusive: 0.501 µM [inhibitor, full curve, poor fit]
35 | O=C(CSc1ccc2ccccc2c1Br)Nc1cccc(S(=O)(=O)NC2=NCCCCC2)c1 | inactive
36 | Cc1sc(N/N=C/C=C/c2ccccc2)nc1-c1ccccc1 | active: 3.55 µM
37 | CC(C)(C)c1ccc(-c2nnc(NC(=O)c3ccccc3)s2)cc1 | active: 7.94 µM
38 | Cc1cc(C)cc(NC(=O)c2ccc(S(=O)(=O)C(F)F)cc2)c1 | inconclusive: 3.16 µM [activator, partial curve]
39 | CN(C)c1ccc(N/C=C/C(=O)C(C)(C)C)cc1 | inconclusive: 35.5 µM [inhibitor, single point]
40 | O=C(NC1CCCCC1)c1ccc(S(=O)(=O)c2ccccc2)cc1 | inconclusive: 35.5 µM [activator, single point]
41 | CN(C)CCCNC(=O)c1cc(Br)ccc1O | inactive
42 | CCCC(=O)Nc1ccc(-c2csc(NNC(C)=O)n2)cc1 | inactive
43 | O=[N+]([O-])c1cc([N+](=O)[O-])c2cc3ccccc3nc2c1 | active: 3.16 µM
44 | COc1ccc(NC(=O)C(Sc2ccccc2)c2ccccc2)c(OC)c1 (configuration not stated) | inconclusive: 11.2 µM [activator, single point]
45 | CCOc1ccccc1C(=O)N[C@H](C(=O)NCc1ccccc1)C(C)C | inconclusive: 1.26 µM [inhibitor, full curve, poor fit]
46 | CC(C)C(NC(=O)CSc1ccc(Cl)cc1)C(C)C | inconclusive: 11.2 µM [inhibitor, single point]
47 | Cc1cccc(C(=O)NC(=S)NCc2cccnc2)c1 | active: 15.8 µM
48 | COc1ccc(N2C(=O)[C@H]3[C@@H](C2=O)C2c4ccccc4C=NN2[C@H]3C(=O)C(C)(C)C)cc1 (some centres not stated) | inactive

Quoted at random: 2 records from the list, in no set order.
Row | SMILES | Potency
39 | CN(C)c1ccc(N/C=C/C(=O)C(C)(C)C)cc1 | inconclusive: 35.5 µM [inhibitor, single point]
34 | Cc1ccc(NS(=O)(=O)c2sc3ccc(Cl)cc3c2C)cc1 | inconclusive: 0.501 µM [inhibitor, full curve, poor fit]

More structures follow:

Row | SMILES | Potency
49 | Cc1ccn2cc(CNS(=O)(=O)c3ccc(Cl)s3)nc2c1 | inconclusive: 17.8 µM [inhibitor, single point]
50 | CCOC(=O)N1C=CC(C)=C[C@@H]2[C@@H](N3C(=O)c4ccccc4C3=O)C(=O)N21 | inactive
51 | CCCCCc1cc(=O)oc2c(C(CCN3CCCC3)c3ccc(N(C)C)cc3)c(OC)cc(OC)c12 (configuration not stated) | inconclusive: 17.8 µM [inhibitor, single point]
52 | O=c1c2cc(N3CCOCC3)ccc2[nH]c(=S)n1CCc1ccccc1 | active: 2 µM
53 | COc1ccc(NC(=O)CSc2ccc(NC(C)=O)cc2)cc1S(=O)(=O)N1CCCCC1 | inconclusive: 12.6 µM [activator, single point]
54 | CCOC(=O)Cn1c(=O)oc2cc(S(=O)(=O)N3CCc4ccccc43)ccc21 | inactive
55 | CC(CCc1ccccc1)NC(=O)CN1CCN(c2ccccc2)CC1 (configuration not stated) | inactive
56 | Cc1ccc(C)c(Cn2nnc3c(=O)[nH]c(C4CCN(C(=O)c5cccs5)CC4)nc32)c1 | inconclusive: 35.5 µM [inhibitor, single point]
57 | NS(=O)(=O)c1cccc(NC(=O)CSc2ncc(C(F)(F)F)cc2Cl)c1 | inactive
58 | COc1ccc2nc(-c3ccccc3)cc(OC)c2c1 | inconclusive: 1.26 µM [activator, full curve, poor fit]
59 | Cc1nc([N+](=O)[O-])c(Br)n1CC(=O)c1ccc(Br)cc1 | active: 11.2 µM
60 | CCCN1C(=O)/C(=C2\SC(=S)N(c3c(C)n(C)n(-c4ccccc4)c3=O)C2=O)c2ccccc21 | inconclusive: 0.0562 µM [activator, partial curve, poor fit]
61 | CN1CCN(c2ncc3nc(-c4cc(F)cc(F)c4)c(=O)n(C)c3n2)CC1 | inactive
62 | CCOc1cc(N2CCOCC2)c(OCC)cc1NC(=O)c1ccc(S(C)(=O)=O)cc1 | inactive
63 | O=C(COc1ccccc1)NNc1nc2ccccc2s1 | active: 5.01 µM
64 | COc1cc(C(=O)NCCCNc2nc3cc(C)cc(C)c3cc2C#N)cc(OC)c1OC | inconclusive: 14.1 µM [activator, single point]
65 | COc1ccccc1Cn1c(=S)[nH]c2cc(C(=O)N3CCN(c4ccccc4OC)CC3)ccc2c1=O | inconclusive: 10 µM [inhibitor, single point]
66 | O=C(Cn1c(=O)[nH]c2ccccc2c1=O)Nc1ccc2c(c1)OCO2 | inactive
67 | Cc1csc2nc(CCNS(=O)(=O)c3cccs3)cn12 | inconclusive: 11.2 µM [activator, single point]
68 | COc1ccc(Cl)cc1Nc1nc(N2CCCC2)nc(N2CCCC2)n1 | inconclusive: 3.16 µM [activator, single point]
69 | COc1ccc(NC(=O)N2CCC3(CC2)CCN(C(=O)c2cc(C(F)(F)F)cc(C(F)(F)F)c2)CC3)cc1 | inactive
70 | C/C(=N\NC(=O)c1cc(-c2cccnc2)nc2ccccc12)c1ccc(O)cc1O | active: 0.631 µM
71 | CCOC(=O)/C(=N/Nc1ccc(C)cc1)S(=O)(=O)c1ccc(Cl)cc1 | inconclusive: 12.6 µM [activator, partial curve]
72 | COc1cc(/C=N\Nc2nc3ccccc3o2)cc(OC)c1OC | inconclusive: 14.1 µM [inhibitor, single point]
